Assay results taken from patent US20110045008A1.
These are yes or no findings as the source states them, for the method shown. Some results given as binding are weak or reduced against the parent protein; the word gives no strength. For some assays here: Tags and fused reporters may be left off the sequences shown.

Amino acid sequences for entries named in this document (tags omitted). Residues count along the entry.
UniProt P05106, residues 27-788: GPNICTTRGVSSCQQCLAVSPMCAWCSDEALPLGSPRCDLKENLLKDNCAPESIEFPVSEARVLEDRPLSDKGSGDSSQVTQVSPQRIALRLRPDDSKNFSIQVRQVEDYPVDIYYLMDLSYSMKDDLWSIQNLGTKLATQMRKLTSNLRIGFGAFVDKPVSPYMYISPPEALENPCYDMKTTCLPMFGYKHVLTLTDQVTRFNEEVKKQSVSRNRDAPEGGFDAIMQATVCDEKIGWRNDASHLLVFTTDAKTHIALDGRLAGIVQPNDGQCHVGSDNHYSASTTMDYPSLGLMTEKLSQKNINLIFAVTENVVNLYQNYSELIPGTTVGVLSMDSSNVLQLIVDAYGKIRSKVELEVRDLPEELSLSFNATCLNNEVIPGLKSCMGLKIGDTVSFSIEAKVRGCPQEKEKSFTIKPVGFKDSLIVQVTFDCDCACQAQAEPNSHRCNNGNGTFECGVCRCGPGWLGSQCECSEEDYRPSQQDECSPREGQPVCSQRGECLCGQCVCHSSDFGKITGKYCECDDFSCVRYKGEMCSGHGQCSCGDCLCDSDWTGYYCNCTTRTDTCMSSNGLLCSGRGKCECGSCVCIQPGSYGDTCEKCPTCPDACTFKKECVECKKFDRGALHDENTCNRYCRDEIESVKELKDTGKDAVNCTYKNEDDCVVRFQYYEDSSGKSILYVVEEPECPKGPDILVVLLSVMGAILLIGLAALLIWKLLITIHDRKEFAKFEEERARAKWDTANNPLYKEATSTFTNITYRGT

Assays:
[1] = biological target: platelet GPIIIa (integrin beta3) on platelets (human) (UniProt P05106); test: 35S-labelled protein on gel filtered platelets, doubling concentrations, overnight at 4 C
[2] = biological target: platelet GPIIIa (integrin beta3) on platelets (human) (UniProt P05106); test: binding study on platelets as for 35S-ADAMTS-18

| binding [1] | binding [2] | Binder |
| --- | --- | --- |
| binds | – | ADAMTS-18 (ligand, 35S methionine (in the binding study)) SAGKSQKGLNVETLVVADKKMVEKHGKGNVTTYILTVMNMVSGLFKDGTIGSDINVVVVSLILLEQEPGGLLINHHADQSLNSFCQWQSALIGKNGKRHDHAILLTGFDICSWKNEPCDTLGFAPISGMCSKYRSCTINEDTGLGLAFTIAHESGHNFGMIHDGEGNPCRKAEGNIMSPTLTGNNGVFSWSSCSRQYLKKFLSTPQAGCLVDEPKQAGQYKYPDKLPGQIYDADTQCKWQFGAKAKLCSLGFVKDICKSLWCHRVGHRCETKFMPAAEGTVCGLSMWCRQGQCVKFGELGPRPIHGQWSAWSKWSECSRTCGGGVKFQERHCNNPKPQYGGLFCPGSSRIYQLCNINPCNENSLDFRAQQCAEYNSKPFRGWFYQWKPYTKVEEEDRCKLYCKAENFEFFFAMSGKVKDGTPCSPNKNDVCIDGVCELVGCDHELGSKAVSDACGVCKGDNSTCKFYKGLYLNQHKANEYYPVVLIPAGARSIEIQELQVSSSYLAVRSLSQKYYLTGGWSIDWPGEFPFAGTTFEYQRSFNRPERLYAPGPTNETLVFEILMQGKNPGIAWKYALPKVMNGTPPATKRPAYTWSIVQSECSVSCGGGYINVKAICLRDQNTQVNSSFCSAKTKPVTEPKICNAFSCPAYWMPGEWSTCSKACAGGQQSRKIQCVQKKPFQKEEAVLHSLCPVSTPTQVQACNSHACPPQWSLGPWSQCSKTCGRGVRKRELLCKGSAAETLPESQCTSLPRPELQEGCVLGRCPKNSRLQWVASSWSECSATCGLGVRKREMKCSEKGFQGKLITFPERRCRNIKKPNLDLEETCNRRACPAHPVYNMVAGWYSLPWQQCTVTCGGGVQTRSVHCVQQGRPSSSCLLHQKPPVLRACNTNFCPAPEKREDPSCVDFFNWCHLVPQHGVCNHKFYGKQCCKSCTRKI |
| – | binds | ADAMTS-18 C-terminal 385 amino acid fragment (AD-18F) (ligand) NETLVFEILMQGKNPGIAWKYALPKVMNGTPPATKRPAYTWSIVQSECSVSCGGGYINVKAICLRDQNTQVNSSFCSAKTKPVTEPKICNAFSCPAYWMPGEWSTCSKACAGGQQSRKIQCVQKKPFQKEEAVLHSLCPVSTPTQVQACNSHACPPQWSLGPWSQCSKTCGRGVRKRELLCKGSAAETLPESQCTSLPRPELQEGCVLGRCPKNSRLQWVASSWSECSATCGLGVRKREMKCSEKGFQGKLITFPERRCRNIKKPNLDLEETCNRRACPAHPVYNMVAGWYSLPWQQCTVTCGGGVQTRSVHCVQQGRPSSSCLLHQKPPVLRACNTNFCPAPEKREDPSCVDFFNWCHLVPQHGVCNHKFYGKQCCKSCTRKI |
